Data as given in PubChem BioAssay AID720710 (VTT Finland, 2013)

Assay: 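siRNAs sensitising CCNE1-overexpressing U-2 OS cells to replication stress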 (primary screen)
Cells: human U-2 OS bone cancer cells, parental and a cyclin E (CCNE1) overexpressing line
Reagents: single siRNA against human genes, 1 µM siRNA in the printed spot mix
Timing: 67 h
Conditions: half the arrays: hydroxyurea 2 mM for 16 h, then 3 h recovery; other arrays untreated
Measurement: 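EdU click signal imaged per DAPI-stained nucleus at 67 h; each spot divided by its subgrid median, then z-scored relative to non-targeting control spots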
Scale: EdU z-score, cyclin E line, hydroxyurea and EdU z-score, parental, hydroxyurea and EdU z-score, cyclin E line, untreated and EdU z-score, parental, untreated: higher = more DNA synthesis than non-targeting controls
This is one part, drawn at random, of about 1,380 deposited reagents. 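One array per condition without replicates; hydroxyurea arrays received 2 mM for 16 h plus 3 h recovery.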 Reagents against one gene are numbered here.

Gene,reagent,"EdU z-score, cyclin E line, hydroxyurea","EdU z-score, parental, hydroxyurea","EdU z-score, cyclin E line, untreated","EdU z-score, parental, untreated"
SIRT2 (sirtuin 2),1,-1.57,-2.77,1.27,-0.652
SIRT2 (sirtuin 2),2,-0.0663,-0.504,1.46,0.609
PRKCG (protein kinase C gamma),1,-1.27,-7.01,-2.64,-0.5
PRKCG (protein kinase C gamma),2,-0.648,-1.58,0.0443,1.54
ZFAT (zinc finger and AT-hook domain containing),1,-0.0513,-1.97,-3.97,-1.34
ZFAT (zinc finger and AT-hook domain containing),2,0.139,-0.269,-2.27,0.05
TERF2 (telomeric repeat binding factor 2),1,-2.29,-2.91,-1.33,-2.16
TERF2 (telomeric repeat binding factor 2),2,-0.0542,-0.33,-0.651,0.497
MRPS26 (mitochondrial ribosomal protein S26),1,-0.674,-0.285,-6.77,-0.606
MRPS26 (mitochondrial ribosomal protein S26),2,2.34,1.51,-2.52,-0.538
HDAC2 (histone deacetylase 2),1,-2.59,0.886,-3.64,-2.44
HDAC2 (histone deacetylase 2),2,1.08,1.17,-1.59,0.319
SETD5 (SET domain containing 5),1,-1.3,-0.99,-0.953,-0.945
SETD5 (SET domain containing 5),2,-1.09,1.68,0.519,-0.745
E4F1 (E4F transcription factor 1),1,-2.06,-1.93,-1.02,0.14
E4F1 (E4F transcription factor 1),2,0.705,1.41,-0.419,0.939
BBC3 (BCL2 binding component 3),1,-1.03,-1.3,-1.35,-0.155
BBC3 (BCL2 binding component 3),2,-0.856,-0.283,-0.411,0.388
DYRK2 (dual specificity tyrosine phosphorylation regulated kinase 2),1,-1.06,-0.652,0.53,0.258
DYRK2 (dual specificity tyrosine phosphorylation regulated kinase 2),2,-0.816,1.76,0.899,3.99
DCLRE1B (DNA cross-link repair 1B),1,-0.273,-0.564,-3.76,-1.66
DCLRE1B (DNA cross-link repair 1B),2,0.648,1.38,-0.439,0.793
HDAC10 (histone deacetylase 10),1,-1.76,2.67,-0.943,-3.2
HDAC10 (histone deacetylase 10),2,-0.634,2.78,-0.806,-1.45
